## Library screen at single concentrations

The chains behind the UniProt entries cited, without tags or fusion partners. Residues count along the entry.
UniProt Q4DA54, 1-478: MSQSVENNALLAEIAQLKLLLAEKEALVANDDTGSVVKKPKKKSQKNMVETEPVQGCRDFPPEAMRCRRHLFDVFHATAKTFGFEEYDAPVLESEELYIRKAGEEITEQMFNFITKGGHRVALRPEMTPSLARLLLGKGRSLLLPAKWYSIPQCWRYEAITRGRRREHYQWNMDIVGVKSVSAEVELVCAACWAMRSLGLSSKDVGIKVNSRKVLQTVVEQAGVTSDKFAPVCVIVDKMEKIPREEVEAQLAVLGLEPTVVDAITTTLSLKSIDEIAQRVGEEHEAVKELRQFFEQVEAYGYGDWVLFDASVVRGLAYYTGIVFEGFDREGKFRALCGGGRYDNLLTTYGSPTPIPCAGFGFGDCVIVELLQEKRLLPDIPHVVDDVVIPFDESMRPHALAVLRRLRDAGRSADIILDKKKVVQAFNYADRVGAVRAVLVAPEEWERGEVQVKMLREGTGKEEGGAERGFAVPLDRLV
UniProt P9WNZ1, whole entry: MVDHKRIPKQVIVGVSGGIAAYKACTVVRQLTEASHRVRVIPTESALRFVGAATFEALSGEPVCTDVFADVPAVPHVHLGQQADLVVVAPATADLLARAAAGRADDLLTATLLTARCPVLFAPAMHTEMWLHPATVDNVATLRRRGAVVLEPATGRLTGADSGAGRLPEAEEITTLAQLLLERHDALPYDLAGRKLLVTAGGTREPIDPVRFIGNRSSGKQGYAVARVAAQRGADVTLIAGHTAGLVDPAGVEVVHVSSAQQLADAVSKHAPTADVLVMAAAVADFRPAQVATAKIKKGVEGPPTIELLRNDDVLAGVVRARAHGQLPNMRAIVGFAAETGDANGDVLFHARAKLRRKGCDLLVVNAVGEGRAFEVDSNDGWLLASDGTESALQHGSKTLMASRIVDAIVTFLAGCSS

The filed quantity is “Percent Effect” (%).
The controls that fix the scale are not given in the record; negative values are as filed.
This is an unselected part of the compounds tested.
Two or more numbers in one place are separate tests of the same structure; such repeats can differ widely.
A dash means the value is not listed here; it may have been measured.

TcHisRS: 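Enzyme assay of histidyl-tRNA synthetase; the read-out is not stated. Target: Histidine-tRNA ligase, Trypanosoma cruzi CL Brener (UniProt Q4DA54). Concentration: 30 µM. Direction is inferred from retests: higher values go with stronger inhibition. Of about 69,000 compounds tested this way, about 31 (0.045%) reached 50% or more in at least one test.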
CoaBC: 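Coenzyme A biosynthesis protein CoaBC, Mycobacterium tuberculosis (UniProt P9WNZ1). Enzyme assay of CoaBC with a phosphate dye (Biomol Green) read at 650 nm. Tested at 30 µM. Higher reads as stronger inhibition, judged from the few compounds that gave an IC50. Most strong results did not repeat in a second test. Size under these conditions: about 67,000 compounds, about 40 of them at 50% or above in at least one test.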

| # | compound | TcHisRS | CoaBC |
|---|---|---|---|
| 1 | `Cc1ccccc1CS(=O)(=O)CC(=O)N(C)Cc1cccc(F)c1` | 7.059% | -1.229% |
| 2 | `COCC(=O)N[C@H](C)c1onc(-c2ccc(Cl)cc2)c1C(=O)O` | -3.261% | 3.753% |
| 3 | `CC(C)COCC(NC(=O)CSc1nnc[nH]1)c1ccco1` (stereo unspecified) | 2.521% | 7.258% |
| 4 | `O=C(c1ccncc1)N1CCc2ncnc(C3CC3)c2CC1` | 6.122% | 1.36% |
| 5 | `COc1cc(N2CCC[C@]3(C(=O)O)CN(C(C)C)C[C@@H]3C2)ncn1` | 2.151% | -10.74% |
| 6 | `Cc1cccc(CN2C[C@@H]3CN(C(=O)c4ccco4)C[C@@H]3C2=O)n1` | 5.825% | 0.3861% |
| 7 | `Cc1ccc(-c2ncc(C(=O)NCCS(N)(=O)=O)s2)c(C)c1` | 2.256% | 4.626% |
| 8 | `CCc1nccn1C1CCCN(C(=O)c2cncn2-c2ccccc2)C1` (stereo unspecified) | 1.667% | 6.105% |
| 9 | `Cc1ccc(CN2CCN(c3nc4c(s3)c(C)nn4C)C(C)C2=O)cc1` (stereo unspecified) | 0% | 7.056% |
| 10 | `O=C(c1ccc2nccn2c1)N1CCC(CCn2cccn2)CC1` | 6.329% | 1.442% |
| 11 | `CCC(=O)Nc1cccc(OCC(=O)N(C)Cc2cc(COC)[nH]n2)c1` | 5.759% | 0.2058% |
| 12 | `c1nc2n(n1)CC(NCc1nc(-c3ccsc3)no1)CC2` (stereo unspecified) | 7.28% | 0.3373% |
| 13 | `Cc1nc(CN2CCCC(Nc3ncnc4ccccc34)C2)no1` (stereo unspecified) | 4.202% | -2.016% |
| 14 | `CN(CCNC(=O)N1CCN(Cc2ccon2)CC1)C1CCCC1` | 3.734% | -2.679% |
| 15 | `CC(C)n1[nH]c(=O)c2c1NC(=O)CSC2c1ccc(OCC(N)=O)cc1` (stereo unspecified) | 2.959% | -4.211% |
| 16 | `CCn1cc(CN2CCCN(C(=O)c3ccccc3C)CC2)cn1` | 2.041% | 6.789% |
| 17 | `CC(C)c1nn(C)c(N2CCOCC2)c1CNCc1nncn1C` | 6.098% | 1.139% |
| 18 | `Cc1cc(NC(=O)NC2CCCc3c2cnn3CCO)n(C)n1` (stereo unspecified) | 8.333% | 0.4132% |
| 19 | `COc1ccc(F)cc1C(C)NC(=O)Nc1nnc(C)s1` (stereo unspecified) | 1.695% | 14.98% |
| 20 | `CNS(=O)(=O)c1cccc(C(C)NCc2ccccc2OC)c1` (stereo unspecified) | 1.724% | 1.984% |
| 21 | `O=S(=O)(C1CC1)N1CCO[C@H]2[C@H](OCC3CC3)CC[C@@H]21` | 4.762% | -11.22% |
| 22 | `O=C(NCc1ccnc(OCC2CC2)c1)C1Cc2ccccc2O1` (stereo unspecified) | -0.5525% | -1.656% |
| 23 | `Cc1noc(C(C)C)c1C(=O)NCCN1CCOCC1` | 2.286% | 2.151% |
| 24 | `CC(C)c1noc(CS(=O)(=O)Cc2nc(C(C)C)no2)n1` | 12.14% | 1.737% |
| 25 | `O=S(=O)(NCCCN1CC=CC1)c1cncc(Cl)c1` | 5.263% | - |
| 26 | `COc1cccc(N2CCN(Cc3ccc4[nH]ccc4c3)CC2=O)c1` | 23.62% | 6.137% |
| 27 | `COCCNC(=O)c1cc2c(s1)CCN2S(C)(=O)=O` | 1.905% | -13.19% |
| 28 | `CCCc1nc(CN(CC)Cc2ccc(O)c(C(=O)O)c2)no1` | 3.879% | 1.901% |
| 29 | `CCN(C(c1cccnc1)c1cc(C)cc(C)c1)S(C)(=O)=O` (stereo unspecified) | -1.01% | 8.104% |
| 30 | `Cc1noc(CS(=O)(=O)C(C)C(=O)N(C)c2ccccc2)n1` (stereo unspecified) | -1.84% | -0.6402% |
| 31 | `Cc1ccc(CN2C(=O)OCC2CO)c2ccccc12` (stereo unspecified) | 1.98% | 3.027% |
| 32 | `CCS(=O)(=O)N1CCC2(CCC2NC(=O)c2ccn(C)c2)CC1` (stereo unspecified) | 8.287% | 8.483% |
| 33 | `c1cc(CNCC2CNc3ccnn3C2)cc(N2CCOCC2)n1` (stereo unspecified) | 5.444% | 11.3% |
| 34 | `CNC(=O)[C@@]12CCCN(c3ncccn3)[C@@H]1CN(c1ncc(C)cn1)C2` | 4.301% | 4.842% |
| 35 | `COc1ncccc1CN1CCC2(CC1)COCCN2C` | 5.063% | - |
| 36 | `CC(C)NC(=O)C(C)NC(=O)N1CCN(c2ccc(Cl)cc2)CC1` (stereo unspecified) | 3.636% | -1.022% |
| 37 | `CCOc1ccc(NC(=O)NCCCN(C)S(C)(=O)=O)cc1C` | 1.657% | 4.204% |
| 38 | `COc1cc2c(nn1)CCN(Cc1noc(-c3ccccc3)n1)C2` | 9.639% | 0.2475% |
| 39 | `CC(CCc1ccccc1)N1CCC(C(=O)Nc2ccccn2)CC1` (stereo unspecified) | 6.098% | 2.785% |
| 40 | `Cc1c(C(=O)N2CCOCC2)n(C)c2ccc(Cl)cc12` | 9.278% | -4.009% |
| 41 | `O=C(NCc1ccco1)[C@H]1C[C@H]2OCC[C@H]2N(C(=O)c2ccncc2)C1` | 3.784% | 4.695% |
| 42 | `O=C(CCCNc1ncccn1)N1CCCC(n2cccn2)C1` (stereo unspecified) | 6.391% | 0.5222% |
| 43 | `Cn1ccc(-c2cc(C(=O)N3CCC(O)CC3)c3ccccn23)n1` | 3.175% | 2.222% |
| 44 | `COc1ccc(-c2noc(C3CC(C(C)C)=NO3)n2)cc1` (stereo unspecified) | 3.59% | 2.116% and 20.12% |
| 45 | `CC(=O)Nc1nc(C(=O)NCc2ccnc(N3CCCC3)c2)cs1` | 1.69% | 8.27% |
| 46 | `Cc1cc(Oc2ccc(NC(=O)C3CC3)cc2)cc(C2CCNCC2)n1` | 2.825% | -12.83% |
| 47 | `Cc1cc(C)n(CC2CCCN2CCCS(=O)(=O)N(C)C)n1` (stereo unspecified) | 4.167% | 4.051% |
| 48 | `O=c1[nH]c(N2CCN(C3CC3)CC2)nc2c1cnn2-c1ccccc1` | -0.578% | 7.438% |
| 49 | `CSc1[nH]nc(NC(=O)c2cccnc2)c1C#N` | 8.911% | -4.096% |
| 50 | `COc1cccc(CCN2C[C@H]3CCNCC[C@H]3S2(=O)=O)c1` | 5.376% | -44.19% |
| 51 | `Cc1cccc(NC(=O)c2cncc(C3CCNCC3)n2)n1` | -0.7692% | 3.088% |
| 52 | `CN(C)c1nc(NCCCN2CCc3ccccc32)ncc1F` | 2.062% | -8.277% |
| 53 | `O=S(=O)(NC1CCCCC12OCCO2)c1cc(Cl)cc(Cl)c1` (stereo unspecified) | 1.554% | 1.01% |
| 54 | `O=C(O)CC1CN(S(=O)(=O)c2cccc(F)c2)c2ccccc21` (stereo unspecified) | -3.415% | 2.886% |
| 55 | `CCCS(=O)(=O)N1CCO[C@H]2[C@@H](Oc3cccnc3)CC[C@@H]21` | 6% | 1.713% |
| 56 | `O=C(N1CCC(O)(C(F)(F)F)C1)C1(c2cccc(Cl)c2)CC1` (stereo unspecified) | 6.897% | -10.41% |
| 57 | `Cc1ccc(F)c(C(=O)NC2CCC(N3C(=O)CCC3=O)CC2)c1` (stereo unspecified) | 4.865% | 13.18% |
| 58 | `CC(C)Nc1nc2c(c(NC3CC3)n1)CN(C(=O)c1ccsc1)CC2` | 6.135% | - |
| 59 | `CC(O)CN1CCN(C(=O)c2cccn2Cc2ccccc2)CC1` (stereo unspecified) | 4.611% | -10.23% |
| 60 | `Cc1nc(CC(=O)N2c3ccccc3OCC2C)cs1` (stereo unspecified) | -4.167% | 2.314% |
| 61 | `CC(=O)N(Cc1ncc(C(C)C)o1)C1CCN(Cc2cc(C)no2)C1` (stereo unspecified) | 2.041% | 9.34% |

For reference, 5 entries once more:

| compound | TcHisRS | CoaBC |
|---|---|---|
| `c1cc(CNCC2CNc3ccnn3C2)cc(N2CCOCC2)n1` (stereo unspecified) | 5.444% | 11.3% |
| `CNS(=O)(=O)c1cccc(C(C)NCc2ccccc2OC)c1` (stereo unspecified) | 1.724% | 1.984% |
| `CC(C)NC(=O)C(C)NC(=O)N1CCN(c2ccc(Cl)cc2)CC1` (stereo unspecified) | 3.636% | -1.022% |
| `COc1ccc(-c2noc(C3CC(C(C)C)=NO3)n2)cc1` (stereo unspecified) | 3.59% | 2.116% and 20.12% |
| `Cc1nc(CN2CCCC(Nc3ncnc4ccccc34)C2)no1` (stereo unspecified) | 4.202% | -2.016% |

Measurements from “University of Dundee, Small-Polar-MMV Screening Library” (2021), ChEMBL document CHEMBL3988442.